Data as given in patent US20040123349A1 (published 2004).
Changes are numbered by the printed parent chain. Names may count otherwise. Results are given in words; binding and its absence hold for the method and conditions named. In cells and extracts the contact can be indirect. Some entries that bind do so weakly or less than the wild type. Tags and fused reporters may be left off the sequences shown.

T1: Myc-NAC1 (Arabidopsis, UniProt Q84TE6 1-324)
T1 construct: Product of the 35S-6xMyc-NAC1 transgene in Arabidopsis thaliana; immunoprecipitated with anti-Myc antibody; also called 6xMyc-NAC1; Myc-tagged NAC1; not shown: 6xMyc tag
T1 sequence (looked up): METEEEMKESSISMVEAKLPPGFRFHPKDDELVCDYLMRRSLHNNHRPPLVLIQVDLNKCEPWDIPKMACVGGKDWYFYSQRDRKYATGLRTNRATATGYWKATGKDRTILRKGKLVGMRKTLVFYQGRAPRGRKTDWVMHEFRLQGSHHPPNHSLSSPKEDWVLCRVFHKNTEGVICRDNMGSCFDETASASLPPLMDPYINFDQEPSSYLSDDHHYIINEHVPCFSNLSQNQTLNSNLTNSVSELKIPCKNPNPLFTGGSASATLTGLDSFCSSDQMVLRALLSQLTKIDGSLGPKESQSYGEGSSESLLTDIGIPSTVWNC

T2: in vitro translated NAC1 (Arabidopsis) (UniProt Q84TE6)
T2 sequence (looked up): T1 sequence (looked up)

T3: SINAT5 (wildtype) (Arabidopsis thaliana) (UniProt Q8S3N1)
T3 sequence: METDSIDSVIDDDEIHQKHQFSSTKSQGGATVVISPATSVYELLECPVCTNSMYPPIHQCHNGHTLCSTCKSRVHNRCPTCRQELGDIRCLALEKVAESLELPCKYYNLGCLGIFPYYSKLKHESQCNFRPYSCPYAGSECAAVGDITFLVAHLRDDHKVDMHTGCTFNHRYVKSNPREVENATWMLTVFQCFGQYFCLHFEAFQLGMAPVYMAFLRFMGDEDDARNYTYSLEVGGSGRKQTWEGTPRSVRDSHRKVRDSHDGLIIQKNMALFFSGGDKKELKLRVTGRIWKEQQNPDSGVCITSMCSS

B1: SINAT5 (C49S) mutant (enzyme)
chain: T3 sequence with C49S
B2: SINAT5 (wildtype) (enzyme)
chain: T3 sequence
notes: GenBank AF480944 is printed for the gene; also called WT SINAT5; SINA of Arabidopsis thaliana 5

Key:
[1] = target: T1, Myc-NAC1; assay: pull-down from extracts of transgenic plants, Western blot
[2] = target: T2, in vitro translated NAC1 (Arabidopsis); assay: in vitro pull-down on amylose resin, 35S-labelled in vitro translated NAC1
[3] = target: T3, SINAT5 (wildtype) (Arabidopsis thaliana); assay: in vitro pull-down on amylose resin, 35S-labelled in vitro translated SINAT5

| Binder | binding [1] | binding [2] | binding [3] |
| --- | --- | --- | --- |
| B1 | binds |  |  |
| B2 |  | binds | binds |
